Measurements taken from publication PMC6609635.
These are yes or no findings as the source states them, for the method shown. Binding seen in cells or lysates may run through a third protein. Some binding calls cover weakened binding; strength is not graded here.

By UniProt entry, the sequences of proteins in these tests, tags left out.
UniProt Q6NZM9: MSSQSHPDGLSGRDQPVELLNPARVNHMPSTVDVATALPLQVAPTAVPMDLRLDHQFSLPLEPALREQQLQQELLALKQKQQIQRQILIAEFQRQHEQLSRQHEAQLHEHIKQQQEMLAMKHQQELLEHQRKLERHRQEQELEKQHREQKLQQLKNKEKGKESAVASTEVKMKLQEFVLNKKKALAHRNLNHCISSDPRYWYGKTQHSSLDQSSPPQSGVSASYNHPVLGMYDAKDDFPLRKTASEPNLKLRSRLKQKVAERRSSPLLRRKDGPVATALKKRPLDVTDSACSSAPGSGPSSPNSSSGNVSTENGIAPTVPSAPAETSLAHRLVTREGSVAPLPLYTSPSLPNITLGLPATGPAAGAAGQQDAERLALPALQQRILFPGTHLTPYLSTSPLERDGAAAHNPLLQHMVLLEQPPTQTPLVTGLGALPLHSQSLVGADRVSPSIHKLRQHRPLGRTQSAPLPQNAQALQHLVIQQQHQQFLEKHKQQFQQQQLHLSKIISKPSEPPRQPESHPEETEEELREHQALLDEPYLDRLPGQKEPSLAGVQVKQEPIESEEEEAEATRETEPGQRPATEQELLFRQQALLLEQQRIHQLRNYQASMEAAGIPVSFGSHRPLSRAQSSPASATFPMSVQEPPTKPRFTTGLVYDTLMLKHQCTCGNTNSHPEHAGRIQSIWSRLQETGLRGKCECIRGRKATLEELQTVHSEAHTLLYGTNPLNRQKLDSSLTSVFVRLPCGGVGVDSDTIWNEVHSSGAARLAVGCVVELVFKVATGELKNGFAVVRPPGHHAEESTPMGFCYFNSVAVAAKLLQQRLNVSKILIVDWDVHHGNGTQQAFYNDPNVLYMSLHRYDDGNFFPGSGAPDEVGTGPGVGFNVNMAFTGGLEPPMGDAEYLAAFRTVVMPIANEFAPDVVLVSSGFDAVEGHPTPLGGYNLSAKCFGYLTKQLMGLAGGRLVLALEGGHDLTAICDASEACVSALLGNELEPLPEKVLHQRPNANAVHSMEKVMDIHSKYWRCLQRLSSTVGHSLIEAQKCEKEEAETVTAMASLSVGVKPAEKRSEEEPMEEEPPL
UniProt P56524: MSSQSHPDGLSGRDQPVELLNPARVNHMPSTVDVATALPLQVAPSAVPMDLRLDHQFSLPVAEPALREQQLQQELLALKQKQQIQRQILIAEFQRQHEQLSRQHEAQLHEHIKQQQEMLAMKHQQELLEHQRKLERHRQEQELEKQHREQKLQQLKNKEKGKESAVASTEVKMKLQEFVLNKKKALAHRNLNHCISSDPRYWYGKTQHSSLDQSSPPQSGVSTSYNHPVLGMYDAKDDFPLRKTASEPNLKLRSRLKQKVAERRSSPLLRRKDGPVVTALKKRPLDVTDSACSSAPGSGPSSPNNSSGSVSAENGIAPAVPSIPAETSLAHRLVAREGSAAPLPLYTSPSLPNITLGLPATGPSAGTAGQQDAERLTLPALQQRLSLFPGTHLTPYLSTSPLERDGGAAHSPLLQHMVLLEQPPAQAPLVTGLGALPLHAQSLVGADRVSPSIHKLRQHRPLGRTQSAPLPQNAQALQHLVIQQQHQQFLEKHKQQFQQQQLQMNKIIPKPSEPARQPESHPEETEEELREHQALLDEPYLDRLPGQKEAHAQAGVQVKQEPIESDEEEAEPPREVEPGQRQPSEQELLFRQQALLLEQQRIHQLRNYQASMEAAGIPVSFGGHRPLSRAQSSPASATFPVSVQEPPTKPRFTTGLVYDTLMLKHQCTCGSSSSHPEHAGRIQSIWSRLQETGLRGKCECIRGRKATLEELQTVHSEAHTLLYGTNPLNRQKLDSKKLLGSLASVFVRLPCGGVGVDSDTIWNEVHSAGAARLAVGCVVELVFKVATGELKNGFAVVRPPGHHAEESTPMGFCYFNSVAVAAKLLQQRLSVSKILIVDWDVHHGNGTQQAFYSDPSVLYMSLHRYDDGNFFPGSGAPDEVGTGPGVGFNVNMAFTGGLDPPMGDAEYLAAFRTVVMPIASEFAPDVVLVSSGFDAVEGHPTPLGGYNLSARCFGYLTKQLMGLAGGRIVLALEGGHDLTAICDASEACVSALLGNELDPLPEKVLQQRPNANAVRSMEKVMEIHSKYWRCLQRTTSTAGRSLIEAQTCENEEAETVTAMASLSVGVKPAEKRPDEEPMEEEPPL
UniProt Q63943: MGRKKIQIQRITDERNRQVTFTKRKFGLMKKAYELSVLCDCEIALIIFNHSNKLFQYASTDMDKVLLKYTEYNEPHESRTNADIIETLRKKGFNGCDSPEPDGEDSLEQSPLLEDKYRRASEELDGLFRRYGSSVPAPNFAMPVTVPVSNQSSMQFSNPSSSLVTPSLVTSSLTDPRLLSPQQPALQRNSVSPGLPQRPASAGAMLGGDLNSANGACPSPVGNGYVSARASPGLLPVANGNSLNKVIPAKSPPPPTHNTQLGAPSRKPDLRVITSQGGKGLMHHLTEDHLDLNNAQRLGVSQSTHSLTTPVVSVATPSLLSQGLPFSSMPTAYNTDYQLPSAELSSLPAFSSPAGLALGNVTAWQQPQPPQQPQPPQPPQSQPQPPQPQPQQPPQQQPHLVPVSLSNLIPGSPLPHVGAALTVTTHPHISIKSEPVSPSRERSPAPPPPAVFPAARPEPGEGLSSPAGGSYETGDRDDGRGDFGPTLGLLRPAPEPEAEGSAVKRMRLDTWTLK

How the values were obtained:
[1] = biological target: HDAC4, endogenous (mouse (endogenous in C2C12)) (UniProt Q6NZM9); assay: co-IP; immunoprecipitation of endogenous HDAC4 (control Ig as control) from control (shCTL) and Bδ-KD (shBδ) C2C12 myoblasts at day 3 of differentiation; blot with anti-HDAC4 and anti-MEF2D
[2] = biological target: Flag-tagged HDAC4 (histone deacetylase 4) (UniProt P56524); assay: co-IP; Flag immunoprecipitation of Flag-tagged HDAC4 or HDAC5 from proliferating C2C12 cells; blot with anti-Flag and anti-PP2A-Bδ

Row | binding [1] | binding [2] | Molecule
1 | binds |  | MEF2D (Myocyte enhancer factor 2D), endogenous (from UniProt Q63943 1-514)
2 |  | binds | PP2A-Bδ (B55δ regulatory subunit of protein phosphatase 2A), endogenous (protein, UniProt Q925E7 1-453) MAGAGGGGCPAGGNDFQWCFSQVKGAVDEDVAEADIISTVEFNYSGDLLATGDKGGRVVIFQREQENKGRAHSRGEYNVYSTFQSHEPEFDYLKSLEIEEKINKIRWLPQQNAAHFLLSTNDKTIKLWKISERDKRAEGYNLKDEDGRLRDPFRITALRVPILKPMDLMVEASPRRIFANAHTYHINSISVNSDHETYLSADDLRINLWHLEITDRSFNIVDIKPANMEELTEVITAAEFHPHQCNVFVYSSSKGTIRLCDMRSSALCDRHAKFFEEPEDPSSRSFFSEIISSISDVKFSHSGRYMMTRDYLSVKVWDLNMEGRPVETHQVHEYLRSKLCSLYENDCIFDKFECCWNGSDSAIMTGSYNNFFRMFDRNTRRDVTLEASRENSKPRASLKPRKVCTGGKRKKDEISVDSLDFNKKILHTAWHPMESIIAVAATNNLYIFQDKIN
